Taken from: PubChem BioAssay AID1259306 (Sanger Institute, 2017)
Shown is a random part of 794 reagents. Of all reagents, 11 (1.4%) were called active. 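Calls reflect knock-down alone; synergy scores play no part, so knock-downs synergising with a drug can be called no change.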 Unmarked entries are inactive. Viability is capped at 1. No sequences are given here. Not given: the amount of reagent, the time to read-out.

Aim: 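Kinase-wide siRNA screen for partners of targeted drugs in colorectal cancer cells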 (primary screen)
Cell system: human SNU-C5 colorectal cancer cells
Reagents: siRNA pool against human genes
Conditions: DMSO vehicle alone, or one anchor drug: BYL719 at 1 µM, cetuximab at 5 µg/ml or trametinib at 10 nM, given 24 h into the assay
Read-out: 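Viability versus non-targeting pool averaged across replicates, given as fraction and robust z-score, and synergy scores for BYL719, cetuximab or trametinib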
Scale: robust z-score, knock-down alone and viability, knock-down alone: higher = more viable cells; synergy score with BYL719: higher = stronger synthetic lethality with BYL719; synergy score with cetuximab: higher = stronger synthetic lethality with cetuximab; synergy score with trametinib: higher = stronger synthetic lethality with trametinib
Active means: 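Essential if knock-down without drug gives a robust z-score under -3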
Calls: active = essential (knock-down alone); inactive = no change alone

| gene knocked down | robust z-score, knock-down alone | viability, knock-down alone | synergy score with BYL719 | synergy score with cetuximab | synergy score with trametinib |
| --- | --- | --- | --- | --- | --- |
| SMAD4 (SMAD family member 4) | -1.26 | 0.69 | -0.0644 | -0.18 | -0.0806 |
| TAOK2 (TAO kinase 2) | 0.771 | 0.97 | -0.0301 | -0.0301 | -0.145 |
| TWF2 (twinfilin actin binding protein 2) | -1.28 | 0.688 | 0.00318 | 0.0551 | -0.0507 |
| COMMD3 (COMM domain containing 3) | 0.678 | 0.957 | 0.243 | 0.128 | -0.0734 |
| CDK20 (cyclin dependent kinase 20) | -2 | 0.588 | -0.0902 | -0.111 | -0.264 |
| ADPGK (ADP dependent glucokinase) | 0.237 | 0.896 | 0.14 | 0.0913 | -0.00179 |
| KIT (KIT proto-oncogene, receptor tyrosine kinase) | -0.336 | 0.818 | 0.0163 | -0.142 | -0.205 |
| FGFR4 (fibroblast growth factor receptor 4) | 0.96 | 0.996 | 0.201 | 0.0617 | 0.06 |
| PRKCE (protein kinase C epsilon) | 0.364 | 0.914 | 0.0136 | -0.0861 | -0.0926 |
| SKAP1 (src kinase associated phosphoprotein 1) | 0.989 | 1 | 0.153 | 0.0613 | 0.055 |
| PRKAR2B | -0.241 | 0.831 | -0.0317 | 0.00209 | 0.0544 |
| MET (MET proto-oncogene, receptor tyrosine kinase) | 0.989 | 1 | 0.0335 | 0 | 0.0443 |
| ROS1 (ROS proto-oncogene 1, receptor tyrosine kinase) | 0.989 | 1 | 0.184 | 0 | -0.209 |
| STK40 (serine/threonine kinase 40) | -0.119 | 0.847 | 0.0869 | -0.0216 | -0.0504 |
| PI4K2B (phosphatidylinositol 4-kinase type 2 beta) | -0.436 | 0.804 | -0.113 | 0.194 | 0.0502 |
| MOK (MOK protein kinase) | 0.898 | 0.987 | 0.0721 | -0.0126 | -0.0434 |
| RIPK4 (receptor interacting serine/threonine kinase 4) | 0.989 | 1 | 0 | 0.0159 | -0.0687 |
| BTK (Bruton tyrosine kinase) | 0.0725 | 0.874 | 0.234 | 0.209 | -0.16 |
| MYO3A (myosin IIIA) | -0.664 | 0.772 | -0.0253 | 0.0214 | -0.152 |
| KCNH8 (potassium voltage-gated channel subfamily H member 8) | 0.342 | 0.911 | 0.0891 | -0.0602 | 0.138 |

Laid out differently: entries from further up
gene knocked down | robust z-score, knock-down alone | viability, knock-down alone | synergy score with BYL719 | synergy score with cetuximab | synergy score with trametinib
TAOK2 (TAO kinase 2) | 0.771 | 0.97 | -0.0301 | -0.0301 | -0.145
TWF2 (twinfilin actin binding protein 2) | -1.28 | 0.688 | 0.00318 | 0.0551 | -0.0507
